Results taken from US7011834B1, “Immunomodulating dimers” (The Board of Trustees of Leland Stanford Junior University, priority 1987, dated 2006).
Not every detail of the peptide structures is certain; ends, links or a residue may be inferred. Some of these results come from one statement about several compounds together. Where no end group is shown, it is not given here.

Key:
[1] = test system: Lew specific CTL precursors in splenocytes; assay: Limiting dilution assay for CTL precursors in splenocytes after in vivo peptide; design: species or system rat; conditions: for decrease in the precursor frequency of Lew specific CTL: treated 7 or 10 days prior to splenectomy
Experimental: The effect of peptides on CTL precursor frequencies in splenocytes was tested as follows. Limiting dilution analysis was carried out essentially as described (Moeller et al. 1993, supra; Skinner and Marbrook. J. Exp. Med. (1976) 143:1562). Briefly, spleens were removed from naive animals or from animals that had received an allograft a minimum of 60 days earlier and then teased into a single cell suspension. Responder cells were plated from 1000 to 40,000 cells per well (24 replicates per concentration) into round bottom microliter wells in RPMI 1640 supplemented with 10% fetal bovine serum (Hyclone, Logan, Utah), 2 mM L-glutamine, 5×10^−5M β-mercaptoethanol, 100 U/ml penicillin, 100 μg/ml streptomycin, 20% supernatant from Concanavalin A activated rat spleen cells, and 50 μM α-methyl mannoside. Then, 5×10^5 irradiated (2000 rads) stimulator cells were added to each well and plates were incubated in a humidified CO2 incubator. After 5 days, aliquots were removed and tested for lysis of ^51Cr-labeled Concanavalin A activated blasts. Aliquots of supernatant were counted in a gamma counter and CTL precursor frequency determined by linear regression (Skinner and Marbrook. 1976, supra). Wells were considered positive if specific release was >10%.
PVG (RT1^c) or ACI […] rats were treated with a single intravenous injection of saline or 2 mg of A2.75-84, B7.75-84, B2702.75-84, or RT1^a.75-84 peptide. Their spleens were removed on different days after peptide treatment, cultured under limiting dilution conditions for 5 days with irradiated (2000R) splenocytes from Lewis rats; i.e., Lew (RT1^1) stimulator cells, and assayed for lysis of ^51Cr-labeled Lew blasts. CTL precursor frequency was determined by linear regression analysis.

[2] = test system: purified T cells; assay: Proliferation assay: purified T cells stimulated by immobilized anti-CD3, 3H-thymidine incorporation; type: cell-based, human
Experimental: Cells and Cell Culture. PBL were isolated from normal donors by centrifugation over Ficoll-Hypaque. In some cases, T cells were purified from this preparation using the method of Secrist et al. [J. Exp. Med. (1993) 178:2123]. Briefly, cells isolated over Ficoll-Hypaque were incubated for 1 hour in Petri dishes. Nonadherent cells were passed over a nylon wool column and the resulting population was >90% CD3+ by FACS analysis. CD8+CTL lines specific for HLA-A2, B7, B27, B48, or Cw4 were generated and maintained in long-term culture as previously described [Buxton et al., J. Exp. Med. (1992) 175:809; Wesley et al., Hum. Immunol. (1993) 36:149]. Jurkat E6-1 and the T cell receptor negative Jurkat, JRT3-T3.5, were obtained from the American Type Culture Collection (ATCC; Rockville, Md.). Other cell lines used included the EBV transformed B cell lines JY, MS, C1R, and 721.221; K562 and HEL, erythroleukemia cell lines; the T cell tumors Peer, Hut-78 and HSB; the Burkitt's lymphoma cell lines Daudi and SUP B17 [Wright et al., J. Exp. Med. (1989) 169:1557], and the NK-like cell line YT2C2. […]
Proliferation Assay. […] Plates were harvested on a PHD Cell Harvester 24 hours later and [^3H]-thymidine incorporation determined by scintillation counting.
Peptides were evaluated for effects on the proliferation of purified T cells stimulated by immobilized anti-CD3 antibody. […]

[3] = test system: skin allograft; assay: Full thickness skin allografts in rats that retained heart grafts; type: in vivo, rat; conditions: rats with heart grafts maintained >100 days, no additional peptide or CsA, n=4
[4] = test system: cardiac allograft; assay: Heterotopic cardiac allograft survival, Lew donor to ACI recipient; type: in vivo, rat
Source text: Vascularized cardiac allografts were heterotypically transplanted into the abdomen of recipient rats using a modification of the technique of Ono and Lindsay (Ono and Lindsey J. Thorac. Cardiovasc. Surg. (1969) 57:225). Abdominal allografts were palpated on a daily basis to assess graft function, and rejection was deemed complete when palpable ventricular contractions ceased.
Cyclosporin A (CsA, Sandoz Pharmaceuticals Corporation, Base, Switzerland) dissolved in olive oil was given orally through a gavage tube at the indicated dose. Peptides were dissolved in water or saline and given intravenously or by gavage as indicated.
Since the B7.75-84 and B2702.75-84 peptides blocked cellular immunity in vivo, we examined their effects on allograft survival in rats. ACI (RT1^a) recipients were given abdominal heterotopic heart allografts from Lew donors (Moeller et al. 1993, supra; Ono and Lindsey. 1969, supra). Graft function was monitored by daily abdominal palpation, and rejection was scored as complete when the palpable ventricular contractions ceased.

[5] = test system: rat splenocytes; assay: Differentiation of rat splenocytes into allospecific CTL in vitro; type: cell-based; conditions: initial studies
Experimental: Therefore, we tested whether splenocytes obtained from rats treated with the peptides in vivo could differentiate into CTL ex vivo. In preliminary studies, the half-life of the B7.75-84 peptide was determined to be 2–3 hours in rats.

[6] = test system: CD8+CTL line specific for HLA-A2; conditions: Clayberger et al. Transplant Proc (1993) 25:477; cited from earlier work
[7] = test system: GVHD; assay: Murine model of Graft Versus Host Disease (GVHD); type: in vivo, mice

Sequence: RENLRIALRY [B2702.75–84]
- decrease in the precursor frequency of Lew specific CTL [1]: 8–10 fold

Sequence: RESLRNLRGY [B7.75–84]
- inhibition of proliferation of purified T cells stimulated by immobilized anti-CD3 antibody [2]: do not
- Lew skin graft without signs of rejection [3]: > 200 days
- graft rejection with oral peptide alone ([4]; oral): rejected their grafts with normal kinetics
- fate of second heart graft from same strain as original donor ([4]; rats with grafts retained at least 100 days after peptide plus CsA, no further treatment, n=3): accepted the second allograft indefinitely
- day by which second heart allograft from Brown Norway donors was rejected ([4]; rats with grafts retained at least 100 days after peptide plus CsA, no further treatment, n=4): ≤ 14 day
- decrease in the precursor frequency of Lew specific CTL [1]: 8–10 fold
- precursor frequency of Lew specific cells in splenocytes ([1]; treated on the day of splenectomy or 24 hours earlier, compared with approximately 1 in 55,000): The same frequency
- blocking of differentiation of rat splenocytes into allospecific CTL in vitro [5]: blocked the differentiation

Sequence: WDRETQICKAKAQTDRENLRIALRY [B2702.60–84]
- inhibition of lysis by established CTL (previously shown) [6]: inhibits lysis

Sequence: YRLAIRLNERRENLRIALRY [B2702.84–75/75–84]
- inhibition of proliferation of purified T cells stimulated by immobilized anti-CD3 antibody [2]: inhibits this proliferation
- evidence of GVHD at end of treatment ([7]; 100 μg/mouse ip daily for 35 days, untreated all showed GVHD in 30 days): did not evidence GVHD
- GVHD in the 20 days following treatment ([7]; after 100 μg/mouse ip daily for 35 days): some of these mice, however, developed GVHD
